# Most values lie at the floor of the assay. Slopes are relative: functional sequences can read slightly below zero.
# Test system: Saccharomyces cerevisiae PS128 hsf1 delta, HSF1(1-493) fusion
# Assay: growth estimate (transactivation domain function in HSF1 fusion, heat-shock survival) (a.u. (slope of normalised read count over time)); higher = stronger growth at 37°C, i.e. more transactivation activity
# Conditions: library: random library
row,Substance,growth estimate
1,TSGKSTSAFETLRLATVQGI,< -0.25
2,TSGRMPAYSKKEDARIPSRR,< -0.25
3,TSHAAAQANVVMPFAQAVSN,< -0.25
4,TSHALAGDLALERECMVLAE,< -0.25
5,TSHQLPGPFPCSDLLYHIRV,< -0.25
6,TSILSLW,< -0.25
7,TSIQRNWAPCHRAGNTKLKG,< -0.25
8,TSIVITSQALVPILPLVRTP,< -0.25
9,TSIVRYSKWTRPRAI,< -0.25
10,TSKDPTLP,< -0.25
11,TSKTTSI,< -0.25
12,TSLIRP,< -0.25
13,TSNLLVFAVHTGRGMDAGLI,< -0.25
14,TSPAGLTMSAEGNCLFSQGG,< -0.25
15,TSPSLQRASDISG,< -0.25
16,TSQLPSGAVDTQIPSTMVIP,< -0.25
17,TSQPEQGEQSRIRASV,< -0.25
18,TSRAMRCLGSIKRLLPKALP,< -0.25
19,TSREHS,< -0.25
20,TSRIDLSQGSKGLGATMG,< -0.25
21,TSRNGPMIGLSNLGASLARH,< -0.25
22,TSRRFENRLLPLRISKLGRP,< -0.25
23,TSRSV,< -0.25
24,TSRTA,< -0.25
25,TSRWILCSS,-0.25

row,Substance,growth estimate
1,TSRYVCFDDPVGFR,< -0.25
2,TSS,< -0.25
3,TSSARKRTTSPPSWADSGSH,< -0.25
4,TSSEVLSSPFYRRGSSPAGR,< -0.25
5,TSSPKDIGYRHGPHAFCRSC,< -0.25
6,TSTSNTNA,< -0.25
7,TSVQGRVLRTWGVEFGTLSQ,< -0.25
8,TSWKAHGVLQDGTSVDLSCR,< -0.25
9,TSYHRGFGLNIVCSAHVKAS,< -0.25
10,TSYRADM,< -0.25
11,TSYVCLEDKPLLSYRV,< -0.25
12,TTAHTCCRPREGEQADVISR,< -0.25
13,TTANNKIVVRYYAMLRVAGS,< -0.25
14,TTARKARFVSYDAIADFMWW,< -0.25
15,TTARSACAGT,< -0.25
16,TTASLPPGCGVCIS,< -0.25
17,TTFTEILAHRRHCTMEQSNT,< -0.25
18,TTGSALGQRQIAQIMRFRSF,< -0.25
19,TTIVPVGEVFV,-0.189
20,TTKPHGSAKKRCGRVRDYLI,< -0.25
21,TTKWTIDCKSHQ,-0.114
22,TTLRFRPSELREHQGQGCAG,< -0.25
23,TTMEQGWTVFGLIRTRVPTQ,< -0.25
24,TTQNHFDRLGLTIKR,< -0.25
25,TTRASERARPELA,< -0.25

row,Substance,growth estimate
1,TTRLPGKHSI,< -0.25
2,TTRLVLNFYEAEEAGCGVTS,-0.09
3,TTRPWDLSTS,< -0.25
4,TTRSSGPFPVFYRGVVGLEA,< -0.25
5,TTRWIGGRVVPFLTGNCEAN,< -0.25
6,TTSAVN,< -0.25
7,TTSEHHPQVRVCPHVLSEQF,< -0.25
8,TTT,< -0.25
9,TTTDGMQ,< -0.25
10,TTVLSYLKRH,< -0.25
11,TTVNTEGAELGVDQHFPMYQ,-0.0849
12,TVAD,< -0.25
13,TVAQLATGGWFLRRCEHGYS,< -0.25
14,TVCIEARDTASIPDAGPSVP,< -0.25
15,TVCWAHPTFRCRHVR,< -0.25
16,TVDLTSLSENLTSS,-0.248
17,TVDTRLHVWLGRYDCFVALK,< -0.25
18,TVERRVSFWASGLECWPLIW,< -0.25
19,TVFASGSSMWLLTCDSRALS,< -0.25
20,TVFGGVTLENFLDLH,0.649
21,TVFIGVGDSIGGSMKRWELC,< -0.25
22,TVFP,< -0.25
23,TVGCSRRGW,< -0.25
24,TVGGGA,< -0.25
25,TVGKPMSSETSGQSWVHNAS,< -0.25

# Quoted from the listing.
# TTSEHHPQVRVCPHVLSEQF | growth estimate: < -0.25
# TVFGGVTLENFLDLH | growth estimate: 0.649
# TVDLTSLSENLTSS | growth estimate: -0.248
# TVGGGA | growth estimate: < -0.25

# The list goes on.

row,Substance,growth estimate
1,TVGLAC,< -0.25
2,TVGLYIARVHE,< -0.25
3,TVGRKCGIIY,< -0.25
4,TVGVRVSVNSRRSCFGSADR,< -0.25
5,TVGWHHR,< -0.25
6,TVGYSGWSEPSRYFPTE,< -0.25
7,TVH,< -0.25
8,TVHAHSGAEPITKFGGRSVI,< -0.25
9,TVIPLENKLESA,< -0.25
10,TVIPSADMSVCRQHGLMLSV,< -0.25
11,TVKH,< -0.25
12,TVKVRTTQCTGRTRDLIPCR,< -0.25
13,TVLCSASWIQ,< -0.25
14,TVLGSCRPGNRW,< -0.25
15,TVLHVSW,< -0.25
16,TVLPDELPSTELNLAP,< -0.25
17,TVLTVCLRHFSNSALIVWWI,< -0.25
18,TVLVRGLPAIPSPGVKSCSK,< -0.25
19,TVNVGRL,< -0.25
20,TVPSIGQRIGLARPRADK,< -0.25
21,TVQVCPTMGTGLSEQVLRGR,< -0.25
22,TVRAAKGSEGLVGHLASPRG,< -0.25
23,TVREALMLTCARS,< -0.25
24,TVRFFSSAYNG,< -0.25
25,TVRGTLLEATASLGPMHIKR,-0.231

row,Substance,growth estimate
1,TVRGYMTTHRFVVNEVDGAL,< -0.25
2,TVRRKDRVSFARGDKPSPFG,< -0.25
3,TVSDRSGCSWRGRGCGMVLS,< -0.25
4,TVSIEERLGGPRPSLEWWHK,< -0.25
5,TVSPSIQIFKA,< -0.25
6,TVSVLMANQKPLGLGQSIRS,< -0.25
7,TVSVTGYISGQSLDQV,< -0.25
8,TVTADPCETCLK,< -0.25
9,TVTELLHRVREDAYRKTLAD,< -0.25
10,TVTF,< -0.25
11,TVTVPRV,< -0.25
12,TVVGSFISPGPRYGSTCRRE,-0.246
13,TVVLCLGNELPG,< -0.25
14,TVVMRGLKHPVGGICQKLVG,< -0.25
15,TVVSRNPGTTL,< -0.25
16,TVWAHWNLCGSPSSLSY,< -0.25
17,TVWGKGRKHS,< -0.25
18,TVWSCGQEPGLILAWDC,-0.141
19,TVYGEKHFWPGSSRLGGESR,< -0.25
20,TVYGRPLPDERVRSPSRRRG,< -0.25
21,TWETICLETGVLEAEVRVPS,< -0.25
22,TWFPLFSLSLDDVPSHGIKR,< -0.25
23,TWGLEPLV,< -0.25
24,TWGSHVSFPESDAGHLIHDV,< -0.25
25,TWIVRTGFSVIRPRARVMES,< -0.25

# Given bar-delimited: part of the list above
row | Substance | growth estimate
20 | TTKPHGSAKKRCGRVRDYLI | < -0.25
21 | TTKWTIDCKSHQ | -0.114
22 | TTLRFRPSELREHQGQGCAG | < -0.25

# (continued)

row,Substance,growth estimate
1,TWR,< -0.25
2,TWSPAVLLDIRT,< -0.25
3,TWSQFSLQIIKL,< -0.25
4,TYADIVGYYNLVGDIIHPCR,< -0.25
5,TYCGYLPFESNGRL,< -0.25
6,TYGCIWPNQMFHSAQPGILR,< -0.25
7,TYGDCSSLASGYCSVYDVVP,< -0.25
8,TYGVDR,-0.247
9,TYLPTTLQEQGHGRAPLLGS,< -0.25
10,TYPQQIDSSTILTIILNEHR,< -0.25
11,TYRSLSAWWD,< -0.25
12,TYRVAGLILPSATRPIV,< -0.25
13,TYSDCYGCPLHVH,< -0.25
14,TYSRSTRISALSTIFQP,< -0.25
15,TYSSIKETV,< -0.25
16,TYSVYIQGS,< -0.25
17,TYSWVIVRILFTRQIGTFRK,< -0.25
18,TYTPACWQYPARTWHGSGGL,0.298
19,TYTPWADKIILVNLSSPPLE,< -0.25
20,TYWANQQSKEGRDG,< -0.25
21,VAAALTRGLQSNTPVQSRNY,< -0.25
22,VAAEKLVSPFNKVAGKRFHF,< -0.25
23,VAARKERKHSRSCGP,< -0.25
24,VAE,< -0.25
25,VAFGSAVQLGFLALCWSEGH,< -0.25

# Rewritten bar-delimited: part of the list above
row | Substance | growth estimate
16 | TTASLPPGCGVCIS | < -0.25
7 | TVH | < -0.25
8 | TVHAHSGAEPITKFGGRSVI | < -0.25
13 | TVVLCLGNELPG | < -0.25

# (continued)

row,Substance,growth estimate
1,VAFSLWGHRSGVLGTVAS,-0.25
2,VAFSSALYRCRVG,< -0.25
3,VAFTGKKCMLCSNALFFGRS,< -0.25
4,VAGGLLLS,< -0.25
5,VAGVSHTN,< -0.25
6,VAHPSMHVTSSLS,< -0.25
7,VAIGLNSRLLLAYKRKPLKE,< -0.25
8,VALIEQVYAY,< -0.25
9,VALTGPLNSSVSTAASRAAA,< -0.25
10,VAM,< -0.25
11,VANDIDIQYN,< -0.25
12,VANRWGNESAWDGSCAGLWH,0.14
13,VANSPSMWLQLRLGRPNLA,< -0.25
14,VANVLERLAD,< -0.25
15,VAPGTTYPIPSSDTLLRGDS,< -0.25
16,VAPSMPH,< -0.25
17,VAQRGGRPPMLHNIARERMR,< -0.25
18,VARGFALTRRIYVT,< -0.25
19,VARLYTAYGLLVLQGTGQLR,< -0.25
20,VARPCIRMARAR,< -0.25
21,VASK,< -0.25
22,VASRDGLQGRVETSCRSFSL,< -0.25
23,VATRGQYRQCSWQSNSSAIG,< -0.25
24,VAVALPSTRITIVRQPRYLR,< -0.25
25,VAVDRMESDFTEDVGT,< -0.25

row,Substance,growth estimate
1,VAYKAEHVTFAGAYF,< -0.25
2,VCAQSYIS,-0.25
3,VCDATQTHYGQSVSTSHFKW,< -0.25
4,VCEIATGLRNATKEGSLSVR,< -0.25
5,VCG,< -0.25
6,VCGPSSSGMFQGTYVTLD,< -0.25
7,VCH,< -0.25
8,VCIES,< -0.25
9,VCIVCPLLWTLLDTGPFHQS,< -0.25
10,VCLKQRRTTGLGIHMALIRC,< -0.25
11,VCLNMNHSDKYGGKVTDRLH,< -0.25
12,VCLSGLVLAWAEHVS,< -0.25
13,VCNASDASGGQL,< -0.25
14,VCNDAHKVF,< -0.25
15,VCPPIRSSKRRSGMLWADTS,< -0.25
16,VCPTG,< -0.25
17,VCRDYSTVCFGWTFAK,< -0.25
18,VCRTTVNAVTGKGDAPGAGR,< -0.25
19,VCSAPGQSCVQSNYPPSPSF,< -0.25
20,VCWFRSV,< -0.25
21,VCYGCKLSPLILLIASPA,< -0.25
22,VCYRSRKA,< -0.25
23,VDAL,< -0.25

# Source: the supplement of paper PMC5949888
